Results deposited as PubChem BioAssay AID1259424 (University of Nebraska Medical Center, 2018).

- Assay: 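Find knockdowns that reproduce the expression shifts seen after KSR1 loss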 (primary screen)
- Cells: human HCT116 colon cancer cells
- Reagents: siRNA pool against human genes, 50 nM
- Measurement: 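Log2 levels of six mRNAs (branched-DNA multiplex), adjusted by two reference genes and the non-targeting median, then scored against the average KSR1 knockdown pattern as Pearson r and euclidean distance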
- Direction: mean correlation with KSR1 profile and KSR1 correlation: higher = expression change more like KSR1 knockdown; mean distance from KSR1 profile: higher = expression change less like KSR1 knockdown
In all, the deposit lists about 14,000 reagents; this is a random part of them. 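Higher correlation or smaller distance means closer resemblance to KSR1 loss; control wells, including KSR1 knockdowns, recur on many plates.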 No sequences are given here. The record does not give: the time to read-out.

| Gene | mean correlation with KSR1 profile | mean distance from KSR1 profile | KSR1 correlation, replicate 1 | KSR1 correlation, replicate 2 | KSR1 correlation, replicate 3 |
| --- | --- | --- | --- | --- | --- |
| POLE3 | 0.316 | 1.33 | 0.627 | -0.381 | 0.26 |
| CD160 | 0.178 | 1.93 | 0.146 | -0.0444 | 0.297 |
| OPA3 | -0.142 | 1.83 | -0.316 | -0.235 | -0.185 |
| TMEM14B | 0.213 | 2.18 | 0.268 | -0.0113 | 0.179 |
| BAALC | 0.864 | 0.833 | 0.862 | 0.838 | 0.86 |
| IGKC | 0.561 | 0.905 | 0.211 | 0.333 | 0.514 |
| NCALD | 0.429 | 2.35 | 0.483 | 0.233 | 0.331 |
| HIPK1 | 0.537 | 1.59 | 0.574 | 0.435 | 0.223 |
| RBP5 | 0.31 | 1.9 | 0.184 | 0.267 | 0.316 |
| KANK2 | -0.324 | 2.16 | 0.00982 | -0.185 | -0.565 |
| HLF | -0.589 | 2.97 | -0.345 | -0.503 | -0.87 |
| CHMP6 | 0.488 | 2.43 | 0.514 | 0.496 | 0.368 |
| PSMB7 | -0.138 | 5.3 | -0.04 | -0.313 | -0.134 |
| KPNA3 | -0.455 | 2.12 | -0.535 | -0.482 | -0.46 |
| DOHH | 0.61 | 2.34 | 0.501 | 0.563 | 0.581 |
| MT1B | 0.327 | 1.41 | 0.373 | 0.323 | 0.327 |
| CDX4 | -0.673 | 2.72 | -0.554 | -0.862 | -0.543 |
| CEACAM19 | 0.369 | 2.59 | 0.661 | 0.161 | 0.153 |
| MAGEE1 | -0.473 | 2.96 | -0.424 | -0.29 | -0.481 |
| SPAG1 | 0.457 | 1.08 | 0.00458 | 0.528 | 0.734 |
| TSPAN4 | -0.404 | 3.95 | -0.166 | -0.567 | -0.401 |
| CIP2A | -0.102 | 3.48 | 0.0591 | -0.311 | -0.161 |
| VENTX | -0.314 | 5.33 | -0.201 | -0.228 | -0.369 |
| DEGS1 | 0.0784 | 2.77 | 0.172 | 0.426 | 0.227 |
| NIN | -0.272 | 2.71 | -0.374 | -0.243 | -0.0499 |
| PLIN1 | 0.342 | 1.32 | 0.304 | 0.594 | 0.214 |
| RNLS | -0.339 | 3 | -0.102 | -0.786 | 0.0093 |
| SS18L2 | 0.39 | 2.64 | 0.297 | 0.447 | 0.33 |
| NUP58 | -0.611 | 2.82 | -0.651 | -0.502 | -0.591 |
| SIRAL1 | 0.756 | 1.35 | 0.747 | 0.775 | 0.827 |
| UGT2B17 | 0.0822 | 1.46 | 0.426 | -0.228 | 0.119 |
| LAP3 | 0.154 | 2.28 | 0.224 | 0.0273 | 0.0204 |
| CRTC3 | -0.0281 | 1.17 | -0.49 | -0.313 | 0.233 |
| NRTN | -0.0505 | 1.48 | 0.239 | -0.0655 | -0.448 |
| SIAH1 | 0.332 | 1.52 | 0.39 | 0.218 | 0.247 |
| GAL3ST2 | -0.434 | 4.76 | -0.245 | -0.423 | -0.557 |
| LHX3 | 0.414 | 1.12 | 0.562 | 0.369 | 0.551 |
| GRIP2 | 0.026 | 2.41 | -0.227 | -0.00649 | -0.0175 |
| SCARA3 | 0.458 | 0.924 | 0.515 | 0.261 | 0.697 |
| BNC2 | 0.0602 | 2.05 | -0.0396 | 0.0511 | 0.0944 |
| DDX39B | -0.219 | 3 | -0.0326 | -0.232 | -0.355 |
| KYAT1 | -0.114 | 3.58 | -0.0101 | -0.255 | -0.186 |
| CASZ1 | -0.266 | 1.57 | 0.0416 | -0.616 | -0.271 |
| ATF5 | 0.325 | 1.66 | 0.354 | 0.372 | 0.321 |
| NAGPA | -0.367 | 1.62 | -0.479 | -0.273 | -0.144 |
| AOC1 | -0.235 | 3.17 | -0.203 | -0.229 | -0.37 |
| DDX39A | -0.0954 | 2.2 | -0.0512 | -0.146 | -0.0867 |
| AMN | 0.144 | 1.47 | 0.18 | 0.109 | 0.176 |
| PHOSPHO1 | -0.533 | 1.68 | -0.571 | -0.432 | -0.571 |
| DNMT3A | -0.489 | 5.06 | -0.518 | -0.475 | -0.574 |

Records above whose target name starts with N or n:
| Gene | mean correlation with KSR1 profile | mean distance from KSR1 profile | KSR1 correlation, replicate 1 | KSR1 correlation, replicate 2 | KSR1 correlation, replicate 3 |
| --- | --- | --- | --- | --- | --- |
| NCALD | 0.429 | 2.35 | 0.483 | 0.233 | 0.331 |
| NIN | -0.272 | 2.71 | -0.374 | -0.243 | -0.0499 |
| NUP58 | -0.611 | 2.82 | -0.651 | -0.502 | -0.591 |
| NRTN | -0.0505 | 1.48 | 0.239 | -0.0655 | -0.448 |
| NAGPA | -0.367 | 1.62 | -0.479 | -0.273 | -0.144 |
